Experimental data taken from the supplement of paper PMC10849652.
The list shows a part of the results.

The chains behind the UniProt entries cited, without tags or fusion partners. Where a name states a change or a piece, a line headed by the entry shows the natural chain unless it says otherwise.
UniProt O14617: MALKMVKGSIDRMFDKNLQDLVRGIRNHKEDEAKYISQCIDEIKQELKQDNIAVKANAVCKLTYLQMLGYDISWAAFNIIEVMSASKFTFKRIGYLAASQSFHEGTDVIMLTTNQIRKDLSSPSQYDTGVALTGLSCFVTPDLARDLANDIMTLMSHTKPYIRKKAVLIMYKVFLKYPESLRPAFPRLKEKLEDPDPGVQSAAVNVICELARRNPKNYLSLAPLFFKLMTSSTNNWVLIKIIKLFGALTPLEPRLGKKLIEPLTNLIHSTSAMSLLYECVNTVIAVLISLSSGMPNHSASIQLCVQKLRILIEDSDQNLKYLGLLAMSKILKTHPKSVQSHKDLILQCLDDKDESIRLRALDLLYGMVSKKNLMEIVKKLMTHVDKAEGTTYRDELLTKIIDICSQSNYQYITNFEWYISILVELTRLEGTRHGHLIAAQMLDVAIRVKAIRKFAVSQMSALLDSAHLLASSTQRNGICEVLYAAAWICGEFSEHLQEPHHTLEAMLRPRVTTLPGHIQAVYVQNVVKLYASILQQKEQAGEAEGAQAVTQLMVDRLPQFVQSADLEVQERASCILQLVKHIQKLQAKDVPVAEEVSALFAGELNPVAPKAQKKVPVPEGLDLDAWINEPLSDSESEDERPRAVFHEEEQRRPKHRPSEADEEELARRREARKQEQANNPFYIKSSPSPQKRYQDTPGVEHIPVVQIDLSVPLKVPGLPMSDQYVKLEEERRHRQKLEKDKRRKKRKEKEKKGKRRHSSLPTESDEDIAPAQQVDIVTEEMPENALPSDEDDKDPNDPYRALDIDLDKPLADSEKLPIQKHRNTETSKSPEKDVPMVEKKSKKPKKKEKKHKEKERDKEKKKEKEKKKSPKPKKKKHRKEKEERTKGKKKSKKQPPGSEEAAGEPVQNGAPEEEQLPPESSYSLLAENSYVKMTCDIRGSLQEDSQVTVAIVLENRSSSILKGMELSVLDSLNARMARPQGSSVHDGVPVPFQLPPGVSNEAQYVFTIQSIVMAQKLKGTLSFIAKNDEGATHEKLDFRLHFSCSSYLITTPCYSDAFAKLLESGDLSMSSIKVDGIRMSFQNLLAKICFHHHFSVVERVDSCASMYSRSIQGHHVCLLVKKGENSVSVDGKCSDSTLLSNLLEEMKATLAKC
UniProt Q9H0R1: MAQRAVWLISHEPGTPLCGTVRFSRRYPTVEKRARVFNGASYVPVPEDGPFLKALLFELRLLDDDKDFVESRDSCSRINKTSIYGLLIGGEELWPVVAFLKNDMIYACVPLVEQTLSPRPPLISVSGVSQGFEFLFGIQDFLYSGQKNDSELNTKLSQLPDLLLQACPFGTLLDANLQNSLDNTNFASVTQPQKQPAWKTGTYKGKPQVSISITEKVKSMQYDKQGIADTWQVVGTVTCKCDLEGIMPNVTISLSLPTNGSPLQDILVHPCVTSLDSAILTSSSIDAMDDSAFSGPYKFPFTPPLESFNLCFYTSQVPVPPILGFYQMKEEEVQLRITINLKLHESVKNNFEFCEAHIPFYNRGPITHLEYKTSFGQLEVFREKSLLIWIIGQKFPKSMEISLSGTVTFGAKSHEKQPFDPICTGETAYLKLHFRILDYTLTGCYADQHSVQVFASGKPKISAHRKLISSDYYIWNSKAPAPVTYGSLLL
UniProt Q6NXT1: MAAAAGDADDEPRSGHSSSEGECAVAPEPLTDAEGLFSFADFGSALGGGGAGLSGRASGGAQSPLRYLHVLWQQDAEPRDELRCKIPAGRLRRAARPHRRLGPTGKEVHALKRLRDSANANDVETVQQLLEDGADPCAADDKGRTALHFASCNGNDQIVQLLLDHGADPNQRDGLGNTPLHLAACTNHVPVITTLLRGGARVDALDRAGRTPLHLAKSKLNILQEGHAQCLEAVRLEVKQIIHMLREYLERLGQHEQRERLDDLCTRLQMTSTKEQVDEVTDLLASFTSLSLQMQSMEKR
UniProt P20073: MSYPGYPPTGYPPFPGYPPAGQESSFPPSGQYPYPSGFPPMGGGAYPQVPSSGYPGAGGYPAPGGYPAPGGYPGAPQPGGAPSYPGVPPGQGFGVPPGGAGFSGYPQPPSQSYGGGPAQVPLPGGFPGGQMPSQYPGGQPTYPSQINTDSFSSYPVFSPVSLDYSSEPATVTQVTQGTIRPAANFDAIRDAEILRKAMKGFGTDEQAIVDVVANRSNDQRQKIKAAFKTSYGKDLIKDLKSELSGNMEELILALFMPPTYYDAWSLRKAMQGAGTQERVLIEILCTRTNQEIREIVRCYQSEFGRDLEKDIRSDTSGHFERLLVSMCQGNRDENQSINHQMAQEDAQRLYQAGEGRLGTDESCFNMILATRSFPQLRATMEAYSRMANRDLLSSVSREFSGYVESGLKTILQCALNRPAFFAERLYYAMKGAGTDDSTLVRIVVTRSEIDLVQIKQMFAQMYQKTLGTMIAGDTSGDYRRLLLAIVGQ
UniProt O75179: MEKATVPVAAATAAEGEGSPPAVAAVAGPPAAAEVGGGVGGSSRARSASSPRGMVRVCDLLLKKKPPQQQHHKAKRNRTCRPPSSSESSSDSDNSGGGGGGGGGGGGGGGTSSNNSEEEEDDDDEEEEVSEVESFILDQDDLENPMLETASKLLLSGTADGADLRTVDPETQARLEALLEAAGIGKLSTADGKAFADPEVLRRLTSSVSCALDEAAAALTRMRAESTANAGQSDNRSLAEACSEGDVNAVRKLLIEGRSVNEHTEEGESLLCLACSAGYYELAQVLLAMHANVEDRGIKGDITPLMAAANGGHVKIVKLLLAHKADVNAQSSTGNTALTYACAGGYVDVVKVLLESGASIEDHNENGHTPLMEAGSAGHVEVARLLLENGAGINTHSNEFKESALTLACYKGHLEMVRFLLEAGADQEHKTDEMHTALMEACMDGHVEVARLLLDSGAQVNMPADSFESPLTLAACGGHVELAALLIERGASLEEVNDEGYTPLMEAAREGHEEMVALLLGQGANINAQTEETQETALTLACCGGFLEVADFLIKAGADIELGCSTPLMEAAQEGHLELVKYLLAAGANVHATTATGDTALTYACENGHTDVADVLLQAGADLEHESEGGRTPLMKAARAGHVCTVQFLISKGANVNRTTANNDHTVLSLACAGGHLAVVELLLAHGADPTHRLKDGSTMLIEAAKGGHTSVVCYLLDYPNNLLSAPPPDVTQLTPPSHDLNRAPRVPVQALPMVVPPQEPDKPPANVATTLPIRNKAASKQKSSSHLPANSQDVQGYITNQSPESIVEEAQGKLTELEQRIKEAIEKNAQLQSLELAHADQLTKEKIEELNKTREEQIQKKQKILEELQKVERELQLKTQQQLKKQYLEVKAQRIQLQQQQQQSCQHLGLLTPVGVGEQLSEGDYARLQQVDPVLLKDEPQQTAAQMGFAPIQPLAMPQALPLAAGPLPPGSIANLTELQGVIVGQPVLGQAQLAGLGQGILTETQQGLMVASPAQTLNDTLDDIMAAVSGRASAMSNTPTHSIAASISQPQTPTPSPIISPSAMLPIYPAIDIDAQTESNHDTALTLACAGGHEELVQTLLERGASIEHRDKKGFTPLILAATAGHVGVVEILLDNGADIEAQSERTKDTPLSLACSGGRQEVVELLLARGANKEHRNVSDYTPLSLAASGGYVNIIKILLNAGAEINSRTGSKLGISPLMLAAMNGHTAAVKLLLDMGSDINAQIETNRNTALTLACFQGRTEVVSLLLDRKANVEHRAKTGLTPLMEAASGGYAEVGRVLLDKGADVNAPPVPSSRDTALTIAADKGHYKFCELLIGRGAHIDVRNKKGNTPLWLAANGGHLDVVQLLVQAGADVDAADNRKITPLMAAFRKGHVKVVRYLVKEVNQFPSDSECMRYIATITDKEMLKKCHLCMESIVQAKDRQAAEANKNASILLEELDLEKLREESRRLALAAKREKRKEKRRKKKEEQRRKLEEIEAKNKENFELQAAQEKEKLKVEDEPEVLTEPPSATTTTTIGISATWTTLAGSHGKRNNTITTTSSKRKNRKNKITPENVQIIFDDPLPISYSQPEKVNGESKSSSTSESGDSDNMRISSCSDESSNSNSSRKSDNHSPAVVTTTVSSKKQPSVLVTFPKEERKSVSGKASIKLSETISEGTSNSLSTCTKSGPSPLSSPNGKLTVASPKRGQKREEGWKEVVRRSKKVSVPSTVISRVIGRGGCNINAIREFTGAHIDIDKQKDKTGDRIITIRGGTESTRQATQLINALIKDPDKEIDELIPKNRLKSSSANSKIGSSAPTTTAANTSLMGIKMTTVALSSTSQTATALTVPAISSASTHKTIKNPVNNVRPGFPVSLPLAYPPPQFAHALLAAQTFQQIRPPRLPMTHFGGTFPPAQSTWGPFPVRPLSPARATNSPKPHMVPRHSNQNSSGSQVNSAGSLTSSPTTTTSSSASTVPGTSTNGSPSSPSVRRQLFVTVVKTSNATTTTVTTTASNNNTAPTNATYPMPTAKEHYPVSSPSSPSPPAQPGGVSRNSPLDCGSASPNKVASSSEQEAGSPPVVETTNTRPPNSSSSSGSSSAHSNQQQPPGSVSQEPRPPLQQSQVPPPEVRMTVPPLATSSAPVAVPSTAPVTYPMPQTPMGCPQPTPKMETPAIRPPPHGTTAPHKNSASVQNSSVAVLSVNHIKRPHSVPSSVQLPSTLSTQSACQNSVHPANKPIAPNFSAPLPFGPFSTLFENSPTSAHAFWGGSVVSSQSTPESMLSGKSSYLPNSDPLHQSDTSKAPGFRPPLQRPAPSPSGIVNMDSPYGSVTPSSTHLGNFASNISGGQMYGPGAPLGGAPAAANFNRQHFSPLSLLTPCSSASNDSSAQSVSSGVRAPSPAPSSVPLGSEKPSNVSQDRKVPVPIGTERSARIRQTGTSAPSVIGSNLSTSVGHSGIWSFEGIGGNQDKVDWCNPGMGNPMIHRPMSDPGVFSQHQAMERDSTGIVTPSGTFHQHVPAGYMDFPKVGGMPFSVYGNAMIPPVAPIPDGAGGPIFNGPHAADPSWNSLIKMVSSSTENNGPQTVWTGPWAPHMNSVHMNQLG
UniProt O95445: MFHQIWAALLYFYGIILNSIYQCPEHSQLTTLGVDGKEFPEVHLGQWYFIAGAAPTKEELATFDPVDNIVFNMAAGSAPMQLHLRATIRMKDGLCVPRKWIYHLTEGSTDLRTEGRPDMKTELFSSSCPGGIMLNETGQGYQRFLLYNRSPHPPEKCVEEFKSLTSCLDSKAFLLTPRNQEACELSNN
UniProt P53680: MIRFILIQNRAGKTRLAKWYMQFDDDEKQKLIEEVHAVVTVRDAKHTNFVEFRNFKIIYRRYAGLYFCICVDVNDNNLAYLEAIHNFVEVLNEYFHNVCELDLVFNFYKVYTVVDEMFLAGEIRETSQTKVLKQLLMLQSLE
UniProt P07741: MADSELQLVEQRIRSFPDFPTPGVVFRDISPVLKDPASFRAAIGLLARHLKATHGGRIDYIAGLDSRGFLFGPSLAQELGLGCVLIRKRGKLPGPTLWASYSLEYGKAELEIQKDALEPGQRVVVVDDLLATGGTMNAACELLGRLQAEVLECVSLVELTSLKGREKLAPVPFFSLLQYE
UniProt P02654: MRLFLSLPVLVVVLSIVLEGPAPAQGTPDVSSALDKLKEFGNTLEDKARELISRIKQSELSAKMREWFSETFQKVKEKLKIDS
UniProt Q9Y5C1: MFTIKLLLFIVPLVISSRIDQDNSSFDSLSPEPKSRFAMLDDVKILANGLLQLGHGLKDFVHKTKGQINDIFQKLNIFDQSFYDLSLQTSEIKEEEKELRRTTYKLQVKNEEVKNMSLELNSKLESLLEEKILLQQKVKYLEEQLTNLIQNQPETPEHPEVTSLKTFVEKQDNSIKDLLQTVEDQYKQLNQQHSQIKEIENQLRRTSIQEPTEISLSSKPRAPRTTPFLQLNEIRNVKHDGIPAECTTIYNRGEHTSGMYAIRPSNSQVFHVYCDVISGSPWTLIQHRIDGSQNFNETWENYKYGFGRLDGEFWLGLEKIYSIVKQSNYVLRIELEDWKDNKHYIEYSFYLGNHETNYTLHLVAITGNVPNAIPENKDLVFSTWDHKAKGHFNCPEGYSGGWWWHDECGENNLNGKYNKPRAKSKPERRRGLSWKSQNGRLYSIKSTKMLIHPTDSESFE
UniProt P52565: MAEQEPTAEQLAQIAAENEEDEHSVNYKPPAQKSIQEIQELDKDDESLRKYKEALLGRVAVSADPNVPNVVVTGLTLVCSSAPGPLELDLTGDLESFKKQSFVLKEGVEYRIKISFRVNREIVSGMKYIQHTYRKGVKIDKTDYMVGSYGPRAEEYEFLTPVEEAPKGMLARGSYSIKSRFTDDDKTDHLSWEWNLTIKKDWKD
UniProt Q9NRW3: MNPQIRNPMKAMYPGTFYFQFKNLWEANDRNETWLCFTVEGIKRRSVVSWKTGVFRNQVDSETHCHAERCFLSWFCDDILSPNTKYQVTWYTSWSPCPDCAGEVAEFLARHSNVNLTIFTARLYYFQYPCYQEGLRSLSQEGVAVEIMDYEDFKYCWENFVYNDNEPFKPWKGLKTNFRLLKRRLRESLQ

Compound: COc1cc2nc(-c3cc(F)ccc3O)nc(N[C@@H]3CNC[C@H]3C(C)(C)O)c2cc1OC
Assay: log2 fold change, soluble protein after heating vs DMSO (PISA); higher = thermal stabilisation; K562 cells, 10 uM, 30 min; active = over 0.2 and 3.5 SD of the protein, either way, in both replicates (recomputed)
Method in brief: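 K562 cells at 2×10^6 cells/mL were treated for 30 min with 10 μM compound, and aliquots were heated for 3 min over 48°C-58°C before pooling. Extraction used PBS with 0.5% NP-40 at 4°C, and soluble protein was the supernatant after 21,000xg for 90 min, measured by TMTpro 16plex LC-MS/MS with channel sums equalised. Thermal stability values, relative to control samples and from duplicates, are log2 fold changes.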

log2 fold change, inactive:
ARAP1 (UniProt Q96P48) -0.016
ARHGAP1 (UniProt Q07960) 0.152
AP3D1 isoform 5 (UniProt O14617) 0.007
ARGLU1 (UniProt Q9NWB6) 0.05
ANK3 (UniProt Q12955) -0.032
AP5M1 (UniProt Q9H0R1) -0.056
APOBEC3G (UniProt Q9HC16) 0.047
ARHGEF12 (UniProt Q9NZN5) 0.075
AQR (UniProt O60306) 0.108
ANKRD54 (UniProt Q6NXT1) -0.057
AP1B1 (UniProt Q10567) -0.059
ANXA7 (UniProt P20073) -0.001
ANKRD17 (UniProt O75179) 0.106
ARHGAP12 (UniProt Q8IWW6) 0.125
ANXA4 (UniProt P09525) 0.066
ANXA11 (UniProt P50995) 0.068
ANPEP (UniProt P15144) -0.096
APOM (UniProt O95445) -0.235
APOH (UniProt P02749) -0.059
AP2S1 (UniProt P53680) 0.023
APRT (UniProt P07741) 0.047
APOC1 (UniProt P02654) -0.053
ARFGAP1 (UniProt Q8N6T3) 0
ANGPTL3 (UniProt Q9Y5C1) -0.011
ARHGDIA (UniProt P52565) -0.018
APOBEC3C (UniProt Q9NRW3) -0.074
ANO10 (UniProt Q9NW15) 0.067
ANK2 (UniProt Q01484) -0.04
ARHGDIB (UniProt P52566) 0.128
ARF3 (UniProt P61204) 0.028
AP2A1 (UniProt O95782) 0.008
AP2A2 isoform 2 (UniProt O94973) 0.083
APOBEC3D (UniProt Q96AK3) -0.042
ANAPC5 (UniProt Q9UJX4) 0.015

As a working copy, part of the list above.
log2 fold change, inactive:
AP5M1 (UniProt Q9H0R1) -0.056
APOBEC3G (UniProt Q9HC16) 0.047
